Data as given in PubChem BioAssay AID1259254 (NCATS, 2017)

- Screen: 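Genome-wide screen for genes that prevent DNA re-replication in cancer cells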 (primary screen)
- Cells: human HCT116 colorectal cancer cells
- Knock-down reagent: single siRNA against human genes
- Time to read-out: 3 days
- Measurement: 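Nuclei stained with Hoechst and imaged; cell-cycle phase assigned by DNA content; G2 share scaled per plate, non-targeting siRNA 0%, GMNN siRNA 100%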
- Scale: G2 robust z-score and G2 cells, % of GMNN control: higher = more G2 cells, more excess DNA replication
- Active means: 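An siRNA counts as active if its G2 robust z-score lies at least 5 MADs above the screen median; here such calls match roughly 38% of GMNN control or more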
The deposit covers about 59,000 reagents; below is an unselected part. About 1,550 of all reagents (2.6%) count as active. 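G2 share is only a proxy for re-replication; each gene was hit by three separate siRNAs, and active genes were retested.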 The numbers tell different reagents against one gene apart. Not all columns of the deposit are shown. Not stated in the record: the amount of reagent.

For WDR82P1 #1, what was measured?
G2 robust z-score: -0.394; G2 cells, % of GMNN control: 0.197; activity call: inactive

How did the screen score WDR82P1 #2?
G2 robust z-score: -0.827; G2 cells, % of GMNN control: -2.85; activity call: inactive

For WDR82P1 #3, how do the results read?
G2 robust z-score: -0.921; G2 cells, % of GMNN control: -3.52; activity call: inactive

Which result is listed for UGCG #1?
G2 robust z-score: -0.235; G2 cells, % of GMNN control: 1.31; activity call: inactive

With UGCG #2, what does the deposit list?
G2 robust z-score: 4.15; G2 cells, % of GMNN control: 32.2; activity call: inactive

What is on record for UGCG #3?
G2 robust z-score: 0.436; G2 cells, % of GMNN control: 6.04; activity call: inactive

Entries above whose gene name starts with W or w:
WDR82P1 #1 → G2 robust z-score = -0.394; G2 cells, % of GMNN control = 0.197; activity call = inactive
WDR82P1 #2 → G2 robust z-score = -0.827; G2 cells, % of GMNN control = -2.85; activity call = inactive
WDR82P1 #3 → G2 robust z-score = -0.921; G2 cells, % of GMNN control = -3.52; activity call = inactive

More results:
With KIR2DL1 #1, how do the results read?
G2 robust z-score: -0.0538; G2 cells, % of GMNN control: 2.59; activity call: inactive

How did the screen score KIR2DL1 #2?
G2 robust z-score: -0.388; G2 cells, % of GMNN control: 0.235; activity call: inactive

With KIR2DL1 #3, what does the deposit list?
G2 robust z-score: 2.47; G2 cells, % of GMNN control: 20.3; activity call: inactive

Which result is listed for SLC2A10 #1?
G2 robust z-score: 0.0143; G2 cells, % of GMNN control: 3.07; activity call: inactive

For SLC2A10 #2, what does the deposit list?
G2 robust z-score: 1.06; G2 cells, % of GMNN control: 10.5; activity call: inactive

For SLC2A10 #3, what was measured?
G2 robust z-score: 6.07; G2 cells, % of GMNN control: 45.7; activity call: active
